# Data as given in the supplement of paper PMC12067093, “Discovery and optimisation of a covalent ligand for TRIM25 and its application to targeted protein ubiquitination” (Chemical Science, 2025).
# Protein sequences, listed by entry. Tags and fused reporters are not part of them. Lines headed by an entry give the natural chain unless they say otherwise; changes in a name come on top.
# UniProt P42331: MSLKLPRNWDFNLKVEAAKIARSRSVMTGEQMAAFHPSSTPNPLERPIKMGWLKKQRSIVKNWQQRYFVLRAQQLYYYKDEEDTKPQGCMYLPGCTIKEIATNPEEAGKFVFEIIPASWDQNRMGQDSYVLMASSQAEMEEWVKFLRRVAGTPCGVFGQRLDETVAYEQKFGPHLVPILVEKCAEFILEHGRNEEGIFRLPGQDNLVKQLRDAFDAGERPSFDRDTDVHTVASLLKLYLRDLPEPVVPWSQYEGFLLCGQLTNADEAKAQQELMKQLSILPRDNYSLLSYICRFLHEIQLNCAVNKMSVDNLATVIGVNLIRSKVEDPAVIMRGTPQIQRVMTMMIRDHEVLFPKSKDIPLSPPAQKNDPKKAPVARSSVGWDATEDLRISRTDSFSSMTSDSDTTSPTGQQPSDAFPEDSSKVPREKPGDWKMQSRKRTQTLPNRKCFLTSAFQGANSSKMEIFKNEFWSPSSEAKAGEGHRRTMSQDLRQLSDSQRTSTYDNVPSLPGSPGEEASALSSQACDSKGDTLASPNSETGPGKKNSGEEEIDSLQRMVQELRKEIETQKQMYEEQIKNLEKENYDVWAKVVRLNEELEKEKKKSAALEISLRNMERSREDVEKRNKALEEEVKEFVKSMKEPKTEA
# UniProt O15085: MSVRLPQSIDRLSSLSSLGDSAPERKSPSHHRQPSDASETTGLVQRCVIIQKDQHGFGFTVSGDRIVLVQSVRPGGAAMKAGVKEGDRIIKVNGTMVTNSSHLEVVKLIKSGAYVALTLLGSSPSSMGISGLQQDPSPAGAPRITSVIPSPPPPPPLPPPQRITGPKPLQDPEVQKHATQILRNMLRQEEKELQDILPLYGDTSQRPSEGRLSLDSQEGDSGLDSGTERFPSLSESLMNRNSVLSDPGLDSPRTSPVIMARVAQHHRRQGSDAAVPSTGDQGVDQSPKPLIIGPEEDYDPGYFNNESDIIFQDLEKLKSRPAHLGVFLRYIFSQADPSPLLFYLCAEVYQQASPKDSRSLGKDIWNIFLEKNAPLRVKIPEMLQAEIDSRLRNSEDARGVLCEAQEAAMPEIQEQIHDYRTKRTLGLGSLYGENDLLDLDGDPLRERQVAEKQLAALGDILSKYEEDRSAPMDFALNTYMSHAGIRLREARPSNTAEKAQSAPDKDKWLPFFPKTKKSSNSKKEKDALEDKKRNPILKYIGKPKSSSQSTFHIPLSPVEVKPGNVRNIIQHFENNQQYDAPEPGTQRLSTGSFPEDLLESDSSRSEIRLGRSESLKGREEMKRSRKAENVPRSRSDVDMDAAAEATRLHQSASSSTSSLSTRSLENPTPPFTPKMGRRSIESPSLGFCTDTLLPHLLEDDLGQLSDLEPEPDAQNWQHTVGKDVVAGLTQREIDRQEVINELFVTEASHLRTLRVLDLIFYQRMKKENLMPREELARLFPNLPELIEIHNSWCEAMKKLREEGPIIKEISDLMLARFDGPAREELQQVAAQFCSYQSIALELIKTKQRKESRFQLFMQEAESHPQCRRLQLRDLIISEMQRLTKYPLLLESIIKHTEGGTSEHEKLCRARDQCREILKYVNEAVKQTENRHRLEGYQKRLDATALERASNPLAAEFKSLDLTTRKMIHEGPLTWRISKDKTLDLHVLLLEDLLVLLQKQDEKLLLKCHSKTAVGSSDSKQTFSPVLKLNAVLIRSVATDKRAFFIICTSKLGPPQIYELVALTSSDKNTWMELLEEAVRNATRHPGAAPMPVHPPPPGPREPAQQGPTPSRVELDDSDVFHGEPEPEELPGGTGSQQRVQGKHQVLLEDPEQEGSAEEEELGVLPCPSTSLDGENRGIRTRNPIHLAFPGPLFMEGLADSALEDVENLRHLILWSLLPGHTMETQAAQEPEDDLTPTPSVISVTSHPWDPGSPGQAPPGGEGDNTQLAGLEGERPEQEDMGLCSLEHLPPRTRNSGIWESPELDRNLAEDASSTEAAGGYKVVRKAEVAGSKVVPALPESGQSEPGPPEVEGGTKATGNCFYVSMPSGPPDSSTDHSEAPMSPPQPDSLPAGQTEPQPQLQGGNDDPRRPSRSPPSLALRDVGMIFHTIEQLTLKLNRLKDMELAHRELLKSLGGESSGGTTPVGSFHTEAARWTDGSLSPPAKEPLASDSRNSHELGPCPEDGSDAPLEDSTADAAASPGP
# UniProt P98171: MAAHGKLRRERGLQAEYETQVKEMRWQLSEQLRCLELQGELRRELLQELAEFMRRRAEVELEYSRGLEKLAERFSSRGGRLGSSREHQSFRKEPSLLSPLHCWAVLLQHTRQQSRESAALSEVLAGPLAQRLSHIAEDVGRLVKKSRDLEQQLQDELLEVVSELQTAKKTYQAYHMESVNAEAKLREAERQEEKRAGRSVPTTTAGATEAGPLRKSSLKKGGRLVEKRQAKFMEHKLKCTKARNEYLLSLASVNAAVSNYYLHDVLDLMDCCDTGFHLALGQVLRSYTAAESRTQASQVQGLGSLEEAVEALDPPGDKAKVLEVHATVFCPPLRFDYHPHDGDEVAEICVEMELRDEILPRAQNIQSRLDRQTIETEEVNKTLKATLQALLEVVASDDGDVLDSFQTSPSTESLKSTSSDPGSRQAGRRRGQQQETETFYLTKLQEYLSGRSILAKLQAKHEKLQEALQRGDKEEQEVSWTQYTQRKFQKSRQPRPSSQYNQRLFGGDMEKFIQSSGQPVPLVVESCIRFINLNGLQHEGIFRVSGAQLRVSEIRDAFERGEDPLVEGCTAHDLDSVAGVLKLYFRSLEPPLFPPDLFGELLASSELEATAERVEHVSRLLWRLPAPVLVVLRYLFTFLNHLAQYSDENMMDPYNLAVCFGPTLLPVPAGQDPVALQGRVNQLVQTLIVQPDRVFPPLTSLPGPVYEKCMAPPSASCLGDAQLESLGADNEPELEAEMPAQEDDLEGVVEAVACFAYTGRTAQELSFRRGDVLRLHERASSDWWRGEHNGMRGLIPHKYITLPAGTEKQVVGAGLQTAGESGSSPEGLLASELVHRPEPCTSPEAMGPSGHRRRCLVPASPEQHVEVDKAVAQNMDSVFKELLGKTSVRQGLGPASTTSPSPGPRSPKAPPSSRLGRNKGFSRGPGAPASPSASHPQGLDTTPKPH
# UniProt Q9Y4X5: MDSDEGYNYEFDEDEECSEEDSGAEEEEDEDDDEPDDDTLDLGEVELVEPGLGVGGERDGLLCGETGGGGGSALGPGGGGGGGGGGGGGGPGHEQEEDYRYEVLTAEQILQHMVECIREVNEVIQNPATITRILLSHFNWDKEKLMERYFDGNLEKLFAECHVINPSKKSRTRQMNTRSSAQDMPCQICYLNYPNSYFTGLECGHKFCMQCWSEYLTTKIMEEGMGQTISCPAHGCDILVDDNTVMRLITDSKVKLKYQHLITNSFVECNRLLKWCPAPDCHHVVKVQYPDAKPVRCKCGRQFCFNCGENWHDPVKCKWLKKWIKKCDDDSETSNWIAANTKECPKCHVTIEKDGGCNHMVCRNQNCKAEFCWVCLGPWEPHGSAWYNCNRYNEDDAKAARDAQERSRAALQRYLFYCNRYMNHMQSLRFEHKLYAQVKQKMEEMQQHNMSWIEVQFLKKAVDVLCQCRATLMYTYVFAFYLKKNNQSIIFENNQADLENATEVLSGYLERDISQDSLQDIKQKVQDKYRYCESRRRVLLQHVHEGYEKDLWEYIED
# UniProt P27540, whole entry, looked up: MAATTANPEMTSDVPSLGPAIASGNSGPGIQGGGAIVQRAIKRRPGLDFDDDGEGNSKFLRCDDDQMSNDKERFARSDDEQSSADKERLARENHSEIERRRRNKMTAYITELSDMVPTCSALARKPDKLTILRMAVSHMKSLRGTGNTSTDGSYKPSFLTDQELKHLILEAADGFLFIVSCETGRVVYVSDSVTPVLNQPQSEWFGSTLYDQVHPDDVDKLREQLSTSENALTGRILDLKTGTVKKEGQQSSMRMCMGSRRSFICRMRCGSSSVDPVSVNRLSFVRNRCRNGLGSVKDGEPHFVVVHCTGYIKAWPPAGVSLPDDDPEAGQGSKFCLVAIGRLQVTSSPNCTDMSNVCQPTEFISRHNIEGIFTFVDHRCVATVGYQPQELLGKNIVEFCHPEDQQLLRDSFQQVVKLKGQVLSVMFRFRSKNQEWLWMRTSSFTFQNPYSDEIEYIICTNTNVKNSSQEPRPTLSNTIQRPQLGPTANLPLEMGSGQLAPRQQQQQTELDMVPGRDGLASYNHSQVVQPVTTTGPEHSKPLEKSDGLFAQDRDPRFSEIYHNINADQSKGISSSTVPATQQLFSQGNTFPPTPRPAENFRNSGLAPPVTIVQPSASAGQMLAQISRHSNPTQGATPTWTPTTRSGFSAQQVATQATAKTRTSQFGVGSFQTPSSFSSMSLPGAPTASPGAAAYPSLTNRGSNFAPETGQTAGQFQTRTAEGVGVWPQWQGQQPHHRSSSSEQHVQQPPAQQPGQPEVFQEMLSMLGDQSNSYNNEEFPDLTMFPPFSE
# UniProt O15013: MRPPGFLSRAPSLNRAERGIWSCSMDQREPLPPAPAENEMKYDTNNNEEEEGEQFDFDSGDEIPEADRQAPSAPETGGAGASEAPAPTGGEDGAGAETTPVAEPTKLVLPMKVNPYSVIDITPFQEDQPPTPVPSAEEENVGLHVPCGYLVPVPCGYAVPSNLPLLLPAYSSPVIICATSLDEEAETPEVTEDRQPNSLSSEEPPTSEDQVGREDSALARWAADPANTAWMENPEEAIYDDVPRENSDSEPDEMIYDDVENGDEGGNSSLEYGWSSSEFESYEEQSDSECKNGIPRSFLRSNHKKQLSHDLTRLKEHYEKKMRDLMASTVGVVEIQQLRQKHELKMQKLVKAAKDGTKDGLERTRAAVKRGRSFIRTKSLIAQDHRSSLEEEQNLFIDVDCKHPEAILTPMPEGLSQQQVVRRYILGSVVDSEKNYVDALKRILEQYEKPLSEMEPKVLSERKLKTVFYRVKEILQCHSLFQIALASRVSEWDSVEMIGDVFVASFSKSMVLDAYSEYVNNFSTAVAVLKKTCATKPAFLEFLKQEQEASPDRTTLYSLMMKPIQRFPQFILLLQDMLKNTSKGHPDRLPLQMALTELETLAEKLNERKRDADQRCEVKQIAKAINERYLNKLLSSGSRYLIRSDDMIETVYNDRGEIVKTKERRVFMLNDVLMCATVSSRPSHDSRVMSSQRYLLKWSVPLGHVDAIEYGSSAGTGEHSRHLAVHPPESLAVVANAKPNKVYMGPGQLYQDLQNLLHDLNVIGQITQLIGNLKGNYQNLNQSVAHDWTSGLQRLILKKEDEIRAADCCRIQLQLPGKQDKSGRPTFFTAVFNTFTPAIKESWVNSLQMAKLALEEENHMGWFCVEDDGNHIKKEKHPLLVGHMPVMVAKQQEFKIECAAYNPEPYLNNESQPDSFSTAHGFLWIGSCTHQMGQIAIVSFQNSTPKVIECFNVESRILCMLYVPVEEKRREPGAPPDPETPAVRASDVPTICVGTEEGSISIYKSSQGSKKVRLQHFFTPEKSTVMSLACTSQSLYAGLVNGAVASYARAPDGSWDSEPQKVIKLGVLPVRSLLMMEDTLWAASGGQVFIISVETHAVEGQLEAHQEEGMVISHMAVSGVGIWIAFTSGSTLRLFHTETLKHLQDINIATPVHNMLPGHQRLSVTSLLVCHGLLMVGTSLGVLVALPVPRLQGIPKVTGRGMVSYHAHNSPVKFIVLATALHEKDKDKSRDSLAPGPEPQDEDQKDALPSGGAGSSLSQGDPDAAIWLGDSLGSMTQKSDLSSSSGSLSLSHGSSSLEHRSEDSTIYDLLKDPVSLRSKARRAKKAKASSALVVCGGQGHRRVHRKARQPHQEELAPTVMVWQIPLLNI
# UniProt Q8IUR7, whole entry, looked up: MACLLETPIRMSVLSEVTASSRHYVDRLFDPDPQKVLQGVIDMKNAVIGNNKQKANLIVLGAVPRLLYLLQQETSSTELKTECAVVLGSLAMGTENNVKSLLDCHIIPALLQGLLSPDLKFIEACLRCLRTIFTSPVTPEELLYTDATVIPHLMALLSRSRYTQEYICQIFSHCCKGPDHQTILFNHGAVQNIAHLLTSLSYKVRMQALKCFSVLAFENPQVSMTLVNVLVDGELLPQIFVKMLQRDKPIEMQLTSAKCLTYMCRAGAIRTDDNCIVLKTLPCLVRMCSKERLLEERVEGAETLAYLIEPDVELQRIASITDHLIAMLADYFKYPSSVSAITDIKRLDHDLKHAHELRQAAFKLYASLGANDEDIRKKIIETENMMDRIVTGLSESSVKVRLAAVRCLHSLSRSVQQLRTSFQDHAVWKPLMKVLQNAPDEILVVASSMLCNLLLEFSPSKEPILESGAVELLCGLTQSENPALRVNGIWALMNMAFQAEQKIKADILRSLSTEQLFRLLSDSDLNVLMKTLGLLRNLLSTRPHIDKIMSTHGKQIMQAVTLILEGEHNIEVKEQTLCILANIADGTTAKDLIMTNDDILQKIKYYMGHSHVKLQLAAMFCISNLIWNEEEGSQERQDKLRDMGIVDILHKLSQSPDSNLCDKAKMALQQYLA
# The list shows a part of the results.
# Compound: CC1Cc2ccccc2N1C(=O)C1CCCN(C1)C(=O)CCl (mixture of isomers) [TRIM25 ligand 11 (diastereomer mixture)]
# Assay: probe-labelled cysteine peptide fold change vs DMSO (competition) (log2 fold change); higher = less target engagement (more negative = stronger competition)
# Details: THP-1, incubation time: 4 h
# 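Also: competitive chemoproteomic profiling in live THP-1 cells with an iodoacetamide desthiobiotin (IA-DTB) probe, comparing probe-labelled peptide intensities in compound-treated cells against DMSO-treated controls.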
Target,probe-labelled cysteine peptide fold change (10 µM),probe-labelled cysteine peptide fold change (50 µM)
ARHGAP25_P42331-2_147_VAGTPCGAVFGQR (UniProt P42331),-0.0269,0.0654
ARHGEF11_O15085_402_GVLCEAQEAAMPEIQEQIHDYR (UniProt O15085),-0.212,-0.509
ARHGAP4_P98171_102_KEPSLLSPLHCWAVLLQHTR (UniProt P98171),-0.014,-0.0472
ARHGAP4_P98171_102_EPSLLSPLHCWAVLLQHTR (UniProt P98171),0.000307,0.0655
ARFGEF1_Q9Y6D6_1729_QETSSLACGLR (UniProt Q9Y6D6),-0.0334,0.232
ARIH1_Q9Y4X5_304+307_QFCFNCGENWHDPVK (UniProt Q9Y4X5),0.0751,-0.185
ARNT_P27540_119_MTAYITELSDMVPTCSALAR (UniProt P27540),0.0314,-0.155
ARID1A_O14497_1827_NDPFVVDCSDK (UniProt O14497),0.000311,-0.0989
ARL2_P36404_153+157_SHHWCIQGCSAVTGENLLPGIDWLLDDISSR (UniProt P36404),0.251,0.0746
APPL1_Q9UKG1_368_DHEEWICTINNISK (UniProt Q9UKG1),-0.0639,-0.0724
ARHGEF10_O15013_477_EILQCHSLFQIALASR (UniProt O15013),0.08,0.249
ARMC8_Q8IUR7_264_CLTYMCR (UniProt Q8IUR7),-0.0562,0.151
ARIH1_Q9Y4X5_327_KCDDDSETSNWIAANTK (UniProt Q9Y4X5),-0.0217,0.0403
ARHGEF18_Q6ZSZ5_315_ECVNGHQLLQGTFSGPSSCPLCGKPFLSSASLK (UniProt Q6ZSZ5),-0.187,-0.0792

# As a short view, part of the list above:
Target,probe-labelled cysteine peptide fold change (10 µM),probe-labelled cysteine peptide fold change (50 µM)
ARHGEF10_O15013_477_EILQCHSLFQIALASR (UniProt O15013),0.08,0.249
ARMC8_Q8IUR7_264_CLTYMCR (UniProt Q8IUR7),-0.0562,0.151
